Results deposited as PubChem BioAssay AID743121 (NCATS, 2013).
Shown is one part, drawn at random, of about 26,000 reagents tested. 167 of all reagents (0.63%) count as active. 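Calls are per gene from RSA p-values that are not deposited; an individual active-marked siRNA can sensitise only weakly.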 Unmarked entries are inactive. Reagents against one gene are numbered here. Not all columns of the deposit are shown.

- Purpose: 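Knock-downs that sensitise breast cancer cells to camptothecin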 (primary screen)
- System: MDA-MB-231 cells, a human breast cancer line
- Reagent: single siRNA against human genes, 20 nM siRNA (0.8 pmol per well)
- Duration: 120 h (drug added 48 h after transfection, read 72 h later)
- Treatment: camptothecin 20 nM (about EC30) for 72 h; vehicle 0.1% DMSO in parallel plates
- Measurement: 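CellTiter-Glo ATP signal, scaled to control siRNA as percent viability; sensitisation given as log2 of untreated divided by camptothecin-treated viability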
- Reading the numbers: log2 vehicle/camptothecin viability: higher = stronger sensitisation to camptothecin
- Call rule: 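Active genes have an RSA gene-level p-value below 0.001, computed from the ratios of their separate siRNAs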

no.	gene	reagent no.	log2 vehicle/camptothecin viability
1	STK26	1	-0.3
2	STK26	2	-0.135
3	STK26	3	-0.159
4	STK26	4	1.08
5	SLC6A4	1	-0.00462
6	SLC6A4	2	0.213
7	SLC6A4	3	-0.025
8	MEP1B	1	-0.586
9	MEP1B	2	-0.144
10	MEP1B	3	-0.244
11	MEP1B	4	0.162
12	ETNPPL	1	-0.0294
13	ETNPPL	2	-0.131
14	ETNPPL	3	-0.441
15	ETNPPL	4	-0.0676
16	SH2D1A	1	-0.123
17	SH2D1A	2	1.27
18	SH2D1A	3	0.176
19	SH2D1A	4	0.0232
20	PPP1R14A	1	0.293
21	PPP1R14A	2	-0.477
22	PPP1R14A	3	0.635
23	PPP1R14A	4	-0.387
24	A4GALT	1	-0.604
25	A4GALT	2	-0.345
26	A4GALT	3	-0.276
27	A4GALT	4	-0.259
28	DSP	1	0.13
29	DSP	2	0.975
30	DSP	3	-0.404
31	DSP	4	-0.342
32	PRSS54	1	-0.399
33	PRSS54	2	-0.655
34	PRSS54	3	-0.0397
35	PRSS54	4	-0.344
36	PHYH	1	-0.108
37	PHYH	2	-0.261
38	PHYH	3	-0.285
39	PHYH	4	-0.174
40	TMPRSS4	1	0.0972
41	TMPRSS4	2	0.425
42	TMPRSS4	3	-0.375
43	TMPRSS4	4	-0.0548
44	GPHRB	1	0.128
45	GPHRB	2	1.22
46	GPHRB	3	-0.245
47	GPHRB	4	-0.0222
48	RBKS	1	-0.0817
49	RBKS	2	0.0447
50	RBKS	3	-0.00141
51	RBKS	4	-0.322
52	GNG11	1	-0.309
53	GNG11	2	0.00552
54	GNG11	3	0.0791
55	GNG11	4	-0.151
56	FPR2	1	-0.72
57	FPR2	2	-0.202
58	FPR2	3	-0.168
59	FPR2	4	-0.498
60	ZMYM2	1	1.04
61	ZMYM2	2	-0.0888
62	ZMYM2	3	-0.248
63	ZMYM2	4	-0.35
64	MST1R	1	-0.718
65	MST1R	2	0.289
66	MST1R	3	-0.142
67	MST1R	4	0.0768
68	SNX6	1	0.318
69	SNX6	2	-0.473
70	SNX6	3	0.0405
71	SNX6	4	-0.375

7 of these entries in another layout.
gene | reagent no. | log2 vehicle/camptothecin viability
SH2D1A | 1 | -0.123
SH2D1A | 2 | 1.27
SH2D1A | 3 | 0.176
SH2D1A | 4 | 0.0232
PPP1R14A | 1 | 0.293
PPP1R14A | 2 | -0.477
PPP1R14A | 3 | 0.635
